Assay results reported in PubChem BioAssay AID2685 (National Center for Advancing Translational Sciences (NCATS), 2010).
Some of the results follow. Shown are side measurements of this screen, not its main read-out; they come without a call. Compounds called inactive in the main read-out are mostly missing here. The note in brackets gives the kind of curve behind each potency; many fits are weak.

Experiment: qHTS Assay for Lipid Storage Modulators in Drosophila S3 Cells;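 for cell number change: cells counted by Cell Tracker Red CMTPX staining in the red channel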
Details: BODIPY lipid droplet fluorescence, 18-24 h; for cell number change: measured here: cell count max response, cells fed with added oleic acid
Outline: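 Laser-scanning cytometry quantifies lipid droplet accumulation (500–530 nm total intensity; droplet/cell object ratio) in oleic acid-fed (400 uM added) Drosophila S3 cells treated with a concentration series. 20 uM Triacsin C defined 100% inhibition.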

[1] = measured here: lipid fluorescence (Fed channel) AC50, cells fed with added oleic acid
[2] = measured here: cell number channel AC50, cells fed with added oleic acid

Row | SMILES | AC50 [1] | cell number change | AC50 [2]
1 | CCN(CC)c1ccc(NC(=O)c2ccc(Cl)nc2)cc1 | 3.26 µM [falling, partial curve] | – | –
2 | CCCOc1ccc(CC(=O)N/N=C\c2ccc(F)cc2)cc1 | 29.1 µM [rising, single point] | – | –
3 | CCCCC(OC(=O)c1ccco1)C(=O)NCc1ccc(C)cc1 (stereo not drawn) | 7.31 µM [falling, single point] | -8.97% | –
4 | COc1ccccc1Nc1nc(N)nc(-c2oc3ccccc3c2C)n1 | 2.06 µM [rising, partial curve] | – | 1.16 µM [rising, partial curve]
5 | Fc1ccccc1-c1n[nH]c(=S)n1C1CC1 | 2.06 µM [falling, single point] | 15.4% | –
6 | CSc1nc(NC(C)(C)C)nc(Oc2ccc(=O)[nH]n2)n1 | – | – | 2.59 µM [falling, partial curve]
7 | O=C(Nc1ccc(N2CCOCC2)cc1)c1cc(F)c(F)cc1Cl | – | 16.7% | 4.11 µM [falling, partial curve]
8 | O=[N+]([O-])c1c(Nc2cccc(O)c2)cc(Cl)c2nonc12 | 11.6 µM [falling, single point] | -32.3% | 4.61 µM [falling, partial curve]
9 | O=C(CCCC(=O)OCC(=O)c1ccc(F)cc1)Nc1cc(C(F)(F)F)ccc1Cl | 23.1 µM [falling, single point] | 25.1% | –
10 | CC(=O)c1ccc(Nc2cc(C)nc3ncnn23)cc1 | – | 9.97% | –
11 | COCCn1c(SCC(=O)N2CCC(C)CC2)nc2c([nH]c3ccccc32)c1=O | – | -37.6% | 18.4 µM [falling, single point]
12 | CCn1c(SCc2ccccc2)nc2c(c1=O)SCC2 | – | -24.7% | 0.517 µM [falling, full curve, poor fit]
13 | CN(C)c1ccc(C2=NOC(CN3C(=O)c4ccccc4S3(=O)=O)C2)cc1 (stereo not drawn) | – | -24.3% | –
14 | COc1ccc(C(=O)NCCNc2ccc([N+](=O)[O-])cc2)cc1 | – | -66% | –
15 | Cc1ccc(C)c(N2CCN(CC(=O)Nc3ccc([N+](=O)[O-])cc3C(=O)Nc3ccccc3F)CC2)c1 | – | 1.58% | –
16 | Cc1ccc(C(=O)N/C(N)=N/c2nc3ccccc3o2)cc1 | 6.51 µM [rising, single point] | 56.9% | 5.8 µM [rising, full curve, poor fit]
17 | O=C(O)c1ccc(Cl)c(S(=O)(=O)Nc2ccccc2Cc2ccccc2)c1 | – | -38.1% | 14.6 µM [falling, partial curve, poor fit]
18 | Cc1cc(C)c(S(=O)(=O)Nc2cc(C)on2)c(C)c1 | 0.651 µM [rising, partial curve, poor fit] | 31.7% | 7.31 µM [rising, partial curve, poor fit]
19 | COc1ccc(OC)c(C2c3c(oc4ccccc4c3=O)C(=O)N2CCCN(C)C)c1 (stereo not drawn) | 5.17 µM [falling, single point] | -5.64% | 6.51 µM [falling, single point]

Entries from the list above containing a carbonyl joined to an NH by a bond outside any ring, in the order listed:
Row | SMILES | AC50 [1] | cell number change | AC50 [2]
1 | CCN(CC)c1ccc(NC(=O)c2ccc(Cl)nc2)cc1 | 3.26 µM [falling, partial curve] | – | –
2 | CCCOc1ccc(CC(=O)N/N=C\c2ccc(F)cc2)cc1 | 29.1 µM [rising, single point] | – | –
3 | CCCCC(OC(=O)c1ccco1)C(=O)NCc1ccc(C)cc1 (stereo not drawn) | 7.31 µM [falling, single point] | -8.97% | –
7 | O=C(Nc1ccc(N2CCOCC2)cc1)c1cc(F)c(F)cc1Cl | – | 16.7% | 4.11 µM [falling, partial curve]
9 | O=C(CCCC(=O)OCC(=O)c1ccc(F)cc1)Nc1cc(C(F)(F)F)ccc1Cl | 23.1 µM [falling, single point] | 25.1% | –
14 | COc1ccc(C(=O)NCCNc2ccc([N+](=O)[O-])cc2)cc1 | – | -66% | –
15 | Cc1ccc(C)c(N2CCN(CC(=O)Nc3ccc([N+](=O)[O-])cc3C(=O)Nc3ccccc3F)CC2)c1 | – | 1.58% | –
16 | Cc1ccc(C(=O)N/C(N)=N/c2nc3ccccc3o2)cc1 | 6.51 µM [rising, single point] | 56.9% | 5.8 µM [rising, full curve, poor fit]

(listing goes on)

Row | SMILES | AC50 [1] | cell number change | AC50 [2]
20 | COc1ccc(-c2csc(N3C(=N)SCC3=O)n2)cc1 | – | 36.2% | 14.6 µM [rising, partial curve, poor fit]
21 | Cc1ccc(C(=O)NC(=S)NCc2cccnc2)c(C)c1 | 5.8 µM [rising, partial curve] | 16.3% | –
22 | Cc1cccc(NC(=O)CN2C(=O)COc3ccc(Cl)cc32)c1C | 0.461 µM [rising, single point] | 12.6% | –
23 | COCCNC(=O)CSc1nc2nc(C)cc(C)n2n1 | 0.0731 µM [falling, full curve, poor fit] | 11.2% | –
24 | COc1cc(C=C(c2nc3ccccc3s2)c2nc3ccccc3s2)cc(OC)c1O | 16.4 µM [rising, partial curve] | 35.9% | 5.17 µM [rising, partial curve]
25 | Cn1c(=O)[nH]c(=O)c2c1nc(SCC(O)CO)n2CCCc1ccccc1 (stereo not drawn) | 0.259 µM [falling, partial curve, poor fit] | -14.8% | –
26 | CC(C)Cn1c(CCCNC(=O)c2ccc(F)cc2)nc2ccccc21 | – | 26.4% | –
27 | COc1ccccc1NC(=O)Nc1nc(CC(=O)NC2CCCC2)cs1 | – | 79.8% | 8.2 µM [rising, partial curve]
28 | S=C(NCCc1ccccc1)NCC(c1ccco1)N1CCCCC1 (stereo not drawn) | – | -47.8% | –
29 | COc1ccccc1NC(=O)C(=O)Nc1ccc2c(c1)N(C(=O)C1CC1)CCC2 | – | – | 0.58 µM [rising, full curve, poor fit]
30 | COC(=O)C1=C(C)NC(=O)C1(Nc1nccs1)C(F)(F)F (stereo not drawn) | 0.366 µM [falling, partial curve, poor fit] | -4.38% | –
31 | COc1ccc(N2C(=O)N3[C@H](c4cccc(C)c4)[C@@H]4C(=O)N(Cc5ccccc5)C(=O)[C@@H]4[C@]3(Cc3ccccc3)C2=O)cc1 | 0.517 µM [rising, single point] | 43.7% | 14.6 µM [rising, partial curve, poor fit]
32 | Nn1c(=O)[nH]c2ccccc2c1=O | 0.231 µM [rising, full curve] | – | 0.146 µM [rising, full curve]
33 | O=C1C(=O)N(CCN2CCOCC2)C(c2ccncc2)/C1=C(/O)c1ccc2c(c1)OCO2 (stereo not drawn) | 0.206 µM [rising, full curve, poor fit] | 16% | –
34 | COC(=O)c1cc(N=C(N)N=C(N)N)cc(C(=O)OC)c1 | 32.6 µM [rising, single point] | 17.2% | –
35 | Cc1[nH]nc2c1C1(CCOC1C)C(C#N)=C(N)O2 (stereo not drawn) | 0.411 µM [rising, single point] | -6.62% | –
36 | Cc1ccc(-c2csc3nc4ccc(C(=O)NCCO)cc4c(=O)n23)cc1 | 29.1 µM [falling, single point] | -0.193% | –
37 | COc1cccc(NC2=Nc3cccc4cccc2c34)c1 | 0.00517 µM [rising, full curve, poor fit] | 10.9% | –
38 | O=C(CCl)c1ccc2c(c1)CCN2C(=O)C1CC1 | 29.1 µM [falling, single point] | -58.9% | 20.6 µM [falling, single point]
